Measured data: PubChem BioAssay AID1224830 (NIAID, 2016)

Test: 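Host factors that control LPS-induced TNF expression in human macrophages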 (primary screen)
System: human THP-1 monocytic leukaemia cells, TNF dual-luciferase reporter clone, PMA-differentiated to macrophage-like cells
Reagent: siRNA pool against human genes, 50 nM
Time to read-out: LPS for 4 h, given about 3 days after siRNA transfection
Treatment: bacterial LPS (TLR4 ligand), 10 ng/ml
Measured: 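TNF firefly reporter luminescence divided by renilla, normalised to the plate median, then turned into a robust z-score for each replicate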
Reading the numbers: TNF reporter robust z-score: higher = stronger TNF reporter response to LPS
Active means: 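a well is active when its z-score exceeds 2.8 or falls below -1.5; control wells carry no call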
The deposit covers about 18,000 reagents; shown is a part drawn at random. About 2,900 of them (16%) count as active. 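Calls are made per well; low scores hint the gene aids the LPS response, high scores that it dampens it.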 Entries without a mark were called inactive. Repeated entries: four replicate wells of each siRNA pool.

| Target gene | TNF reporter robust z-score |
| --- | --- |
| ZNF585A | 0.2 |
| ZNF585A | 1.13 |
| ZNF585A | 0.82 |
| ZNF585A | -0.31 |
| SLC1A4 | 0.09 |
| SLC1A4 | 0.41 |
| SLC1A4 | 1.07 |
| SLC1A4 | 1.66 |
| ANXA1 | 0.11 |
| ANXA1 | 1 |
| ANXA1 | 1.07 |
| ANXA1 | 1.61 |
| HOATZ | -0.52 |
| HOATZ | -0.55 |
| HOATZ | -0.76 |
| HOATZ | -0.57 |
| KRTAP13-3 | -1.36 |
| KRTAP13-3 | -1.02 |
| KRTAP13-3 | -1.26 |
| KRTAP13-3 | 0.87 |
| ENO3 | 0.28 |
| ENO3 | 0.49 |
| ENO3 | -0.06 |
| ABHD16B | 1.74 |
| ABHD16B | 1.28 |
| ABHD16B | 0.53 |
| ABHD16B | 0.36 |
| GLT8D2 | -0.79 |
| GLT8D2 | 0.48 |
| GLT8D2 | -0.31 |
| GLT8D2 | 0.16 |
| PAPPA2 | -0.91 |
| PAPPA2 | -0.64 |
| PAPPA2 | -0.48 |
| PAPPA2 | 0.14 |
| UCP2 | -0.25 |
| UCP2 | -0.27 |
| UCP2 | -0.73 |
| UCP2 | 0.21 |
| ZEB1 | -0.42 |
| ZEB1 | 0.13 |
| ZEB1 | -0.54 |
| ZEB1 | -0.6 |
| CERS3 | -0.55 |
| CERS3 | -0.85 |
| CERS3 | -0.79 |
| CERS3 | 0.36 |
| LZTFL1 | 0.85 |
| LZTFL1 | 1.35 |
| LZTFL1 | 1.28 |
| LZTFL1 | 2.13 |
| SLITRK2 | -0.06 |
| SLITRK2 | 1.33 |
| SLITRK2 | 0.49 |
| SLITRK2 | 0.78 |
| FANCD2 | 0.7 |
| FANCD2 | -0.79 |
| FANCD2 | -0.44 |
| FANCD2 | 0.8 |
| RNASET2 | 0.09 |
| RNASET2 | 1.74 |
| RNASET2 | 2.14 |
| RNASET2 | 2.49 |
| TRAPPC2L | 0.5 |
| TRAPPC2L | 1.62 |
| TRAPPC2L | 2.37 |
| TRAPPC2L | 3.87 (active) |
| ZDHHC23 | 1.18 |
| ZDHHC23 | -0.46 |
| ZDHHC23 | 0.27 |
| ZDHHC23 | 2.31 |
| AOX1 | -0.62 |
| AOX1 | -0.23 |
| AOX1 | -0.67 |
| AOX1 | -0.34 |
| FAM81B | -0.93 |
| FAM81B | -0.41 |
| FAM81B | -0.15 |
| FAM81B | -0.54 |
| OR56A4 | -0.37 |
| OR56A4 | -0.81 |
| OR56A4 | -0.3 |
| OR56A4 | -0.55 |
| SLC44A3 | 0.4 |
| SLC44A3 | 0.92 |
| SLC44A3 | 0.23 |
| SLC44A3 | 0.29 |
| RNF114 | -1.11 |
| RNF114 | -0.83 |
| RNF114 | -1.32 |
| RNF114 | 0.1 |
| BUB1 | 0.41 |
| BUB1 | 0.01 |
| BUB1 | 0.67 |
| BUB1 | 0.82 |
| CEACAM21 | -0.66 |
| CEACAM21 | -1.54 (active) |
| CEACAM21 | -0.63 |
| CEACAM21 | -0.67 |
| CXCR6 | 0.26 |
| CXCR6 | 1.44 |
| CXCR6 | -0.09 |
| CXCR6 | -0.36 |
| XIAP | -0.74 |
| XIAP | -0.98 |
| XIAP | 0.03 |
| XIAP | 1.87 |
| CXorf65 | -0.93 |
| CXorf65 | 0.72 |
| CXorf65 | 0.25 |
| CXorf65 | 0.93 |

In a second layout: 9 of the entries above.
{"Target gene":"FAM81B","TNF reporter robust z-score":-0.15}
{"Target gene":"FAM81B","TNF reporter robust z-score":-0.54}
{"Target gene":"OR56A4","TNF reporter robust z-score":-0.37}
{"Target gene":"OR56A4","TNF reporter robust z-score":-0.81}
{"Target gene":"OR56A4","TNF reporter robust z-score":-0.3}
{"Target gene":"OR56A4","TNF reporter robust z-score":-0.55}
{"Target gene":"SLC44A3","TNF reporter robust z-score":0.4}
{"Target gene":"SLC44A3","TNF reporter robust z-score":0.92}
{"Target gene":"SLC44A3","TNF reporter robust z-score":0.23}
